Experimental data from paper PMC2174947.

Protein sequences, listed by entry. Tags and fused reporters are not part of them. Residues count along the entry.
UniProt P08047, 2-785: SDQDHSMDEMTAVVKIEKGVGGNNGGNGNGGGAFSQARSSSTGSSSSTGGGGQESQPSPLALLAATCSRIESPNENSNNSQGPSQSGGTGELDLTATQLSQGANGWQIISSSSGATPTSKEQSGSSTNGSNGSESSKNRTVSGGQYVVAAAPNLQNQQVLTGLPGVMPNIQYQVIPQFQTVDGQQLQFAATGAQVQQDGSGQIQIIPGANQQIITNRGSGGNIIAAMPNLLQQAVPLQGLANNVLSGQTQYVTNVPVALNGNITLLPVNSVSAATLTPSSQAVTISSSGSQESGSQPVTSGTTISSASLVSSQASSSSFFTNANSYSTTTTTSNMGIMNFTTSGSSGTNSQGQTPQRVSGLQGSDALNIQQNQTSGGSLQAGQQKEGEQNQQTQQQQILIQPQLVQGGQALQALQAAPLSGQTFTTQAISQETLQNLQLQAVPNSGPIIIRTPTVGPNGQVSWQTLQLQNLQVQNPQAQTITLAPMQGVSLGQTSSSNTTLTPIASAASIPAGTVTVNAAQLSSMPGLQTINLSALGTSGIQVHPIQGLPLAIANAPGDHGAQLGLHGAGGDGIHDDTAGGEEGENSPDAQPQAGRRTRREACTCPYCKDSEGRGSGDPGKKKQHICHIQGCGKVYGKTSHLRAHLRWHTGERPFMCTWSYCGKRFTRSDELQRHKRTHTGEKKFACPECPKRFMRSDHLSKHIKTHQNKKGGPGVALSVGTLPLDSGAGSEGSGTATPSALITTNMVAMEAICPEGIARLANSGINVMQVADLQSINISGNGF
UniProt P08047, whole entry: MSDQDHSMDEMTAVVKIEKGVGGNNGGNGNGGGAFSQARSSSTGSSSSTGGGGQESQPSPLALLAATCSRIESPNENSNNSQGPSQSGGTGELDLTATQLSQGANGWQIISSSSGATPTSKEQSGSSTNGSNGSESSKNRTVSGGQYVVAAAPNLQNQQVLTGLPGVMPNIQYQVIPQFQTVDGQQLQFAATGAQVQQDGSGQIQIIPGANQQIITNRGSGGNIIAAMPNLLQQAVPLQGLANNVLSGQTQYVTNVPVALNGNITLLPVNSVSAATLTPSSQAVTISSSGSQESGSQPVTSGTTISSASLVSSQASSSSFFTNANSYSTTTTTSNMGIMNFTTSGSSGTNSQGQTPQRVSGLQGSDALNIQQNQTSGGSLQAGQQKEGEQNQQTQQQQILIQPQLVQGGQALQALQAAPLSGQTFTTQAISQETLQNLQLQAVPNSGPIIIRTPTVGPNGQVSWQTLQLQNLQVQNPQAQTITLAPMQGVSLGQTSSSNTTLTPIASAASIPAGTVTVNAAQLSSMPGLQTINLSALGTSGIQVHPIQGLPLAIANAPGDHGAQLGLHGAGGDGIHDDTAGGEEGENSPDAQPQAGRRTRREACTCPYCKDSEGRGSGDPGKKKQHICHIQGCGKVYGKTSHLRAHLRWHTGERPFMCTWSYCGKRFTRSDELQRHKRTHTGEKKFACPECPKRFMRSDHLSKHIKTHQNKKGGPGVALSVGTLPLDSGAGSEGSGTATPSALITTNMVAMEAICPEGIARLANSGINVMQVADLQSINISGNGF

Assays:
[1] = target: Sp1 (HepG2 nuclear extract) (Homo sapiens) (UniProt P08047); experiment: pull-down (DAPA); details: DAPA: 20 mM HEPES pH 7.6, 10 mM (NH4)2SO4, 1 mM EDTA, 1 mM DTT, 1% Tween 20, 100 mM KCl, 4 C; protein in an extract; label: 5' biotin; letters put together from the description
[2] = target: T1, MAZ (HepG2 nuclear extract) (Homo sapiens) (UniProt P56270); experiment: pull-down (DAPA); details: DAPA: 20 mM HEPES pH 7.6, 10 mM (NH4)2SO4, 1 mM EDTA, 1 mM DTT, 1% Tween 20, 100 mM KCl, 4 C; protein in an extract; label: 5' biotin; letters put together from the description
T1 sequence (looked up, limits assumed): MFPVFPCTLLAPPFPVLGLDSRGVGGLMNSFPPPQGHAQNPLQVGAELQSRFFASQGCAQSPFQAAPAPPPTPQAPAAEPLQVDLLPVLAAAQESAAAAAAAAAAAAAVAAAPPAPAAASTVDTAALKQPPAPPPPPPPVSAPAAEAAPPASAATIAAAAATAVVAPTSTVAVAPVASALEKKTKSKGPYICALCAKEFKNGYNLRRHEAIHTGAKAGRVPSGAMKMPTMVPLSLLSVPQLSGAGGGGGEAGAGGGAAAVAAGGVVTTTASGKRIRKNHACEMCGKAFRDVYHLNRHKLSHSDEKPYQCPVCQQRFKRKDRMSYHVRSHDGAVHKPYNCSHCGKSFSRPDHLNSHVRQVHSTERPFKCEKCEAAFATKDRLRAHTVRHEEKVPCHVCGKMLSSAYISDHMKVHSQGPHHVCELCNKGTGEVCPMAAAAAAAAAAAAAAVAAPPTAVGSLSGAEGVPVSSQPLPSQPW

[3] = target: T1, MAZ (HepG2 nuclear extract) (Homo sapiens); experiment: competition with a labelled probe; details: 200-fold excess vs N1; EMSA: 10 mM Tris-HCl pH 7.5, 50 mM NaCl, 5 mM MgCl2, 1 mM EDTA, 10% glycerol, 1 ug poly(dI-dC), 30 C 30 min; protein in an extract
[4] = target: GST-MAZΔF34 (UniProt P56270); experiment: EMSA; details: EMSA: 10 mM Tris-HCl pH 7.5, 50 mM NaCl, 5 mM MgCl2, 1 mM EDTA, 10% glycerol, 1 ug poly(dI-dC), 30 C 30 min; recombinant protein; label: 32P 5' end
[5] = target: Sp1 (UniProt P08047); experiment: EMSA; details: 20-200 ng Sp1; EMSA: 10 mM Tris-HCl pH 7.5, 50 mM NaCl, 5 mM MgCl2, 1 mM EDTA, 10% glycerol, 1 ug poly(dI-dC), 30 C 30 min; recombinant protein; label: 32P 5' end
[6] = target: T1, MAZ (HepG2 nuclear extract) (Homo sapiens); experiment: EMSA; details: anti-MAZ reduces major complex; EMSA: 10 mM Tris-HCl pH 7.5, 50 mM NaCl, 5 mM MgCl2, 1 mM EDTA, 10% glycerol, 1 ug poly(dI-dC), 30 C 30 min; protein in an extract; label: 32P 5' end

“CAAGAGCCAGACCCTCCCTCTGGGCTCTGCTGGCCCA (double strand) [DAPA wt]”: binds [1]; binds [2].

“CAAGAGCCAGACCCTCCCTCTGTTAGAGTAGTTAAAC (double strand) [DAPA mut -62/-48]”: binds more weakly [2].

“CAAGAGCCAGCAAAGAAAGATGGGCTCTGCTGGCCCA (double strand) [DAPA mut -74/-65]”: binds more weakly [1]; binds more weakly [2].

“GCCAAGAGCCAGACCCTCCCTCTGGGAACTGCTGGCCCA (double strand) [M10]”: no binding [3].

“GCCAAGAGCCAGACCCTCCCTCTGGGCAATGCTGGCCCA (double strand) [M11]”: no binding [3].

“GCCAAGAGCCAGACCCTCCCTCTGGGCTAAGCTGGCCCA (double strand) [M12]”: no binding [3].

“GCCAAGAGCCAGACCCTCCCTCTGGGCTCAACTGGCCCA (double strand) [M13]”: no binding [3].

“GCCAAGAGCCAGACCCTCCCTCTGGGCTCTAATGGCCCA (double strand) [M14]”: no binding [3].

“GCCAAGAGCCAGACCCTCCCTCTGGGCTCTGAAGGCCCA (double strand) [M15]”: no binding [3].

“GCCAAGAGCCAGACCCTCCCTCTGGGCTCTGCTGGCCCA (double strand) [wt 34-nt EMSA probe]”: no binding [4]; binds [5]; binds [6].

Construct, isoform or probe ends are uncertain for at least one entry. For some assays here: No signal at the amounts used counts as a negative. For some assays here: At least one result comes from cells or an extract, where the contact may be indirect. For some assays here: Tags and fusion partners may be left off the protein sequences shown. For some assays here: Weaker means in comparison with the reference protein, sequence or condition of that experiment. For some assays here: At least one verdict rests on a figure or table, not on a statement of the authors.
